{"source": "PubChem BioAssay AID686943 (Drosophila RNAi Screening Center, 2013)", "screen": "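Search across the genome for regulators of signalling from receptor tyrosine kinase to ERK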 (primary screen)", "cell system": "Drosophila S2R+ haemocyte-like cells expressing YFP-tagged ERK (Rolled)", "knock-down reagent": "long dsRNA against Drosophila genes", "treatment": "insulin stimulation versus unstimulated cells; dose and duration not given", "measurement": "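Per-plate z-scores of phospho-ERK immunostaining normalised to YFP-tagged ERK, measured with and without insulin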", "scale": "replicate 1, z-score of dpERK with insulin: higher = more active ERK per ERK-YFP after insulin", "note": "The screen tested about 23,000 reagents; below is an unselected part of those that have a named target and a result. 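Extra replicates exist only for a retested subset of genes; insulin dose and duration not given; both raised and lowered dpERK matter.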 A plus sign joins genes that one reagent is predicted to hit. Not all columns of the deposit are shown. The record does not give: the amount of reagent, the time to read-out."}
{"gene": "yip7 (yippee interacting protein 7)", "dsRNA": "DRSC11410", "replicate 1, z-score of dpERK with insulin": 0.75}
{"gene": "AIMP1 (aaRS-interacting multifunctional protein 1)", "dsRNA": "DRSC07118", "replicate 1, z-score of dpERK with insulin": 0.76}
{"gene": "CG31705", "dsRNA": "DRSC01991", "replicate 1, z-score of dpERK with insulin": -4.09}
{"gene": "CG6195", "dsRNA": "DRSC15989", "replicate 1, z-score of dpERK with insulin": -0.72}
{"gene": "Gnf1 (Germ line transcription factor 1)", "dsRNA": "DRSC12351", "replicate 1, z-score of dpERK with insulin": -2.29}
{"gene": "Nup205 (Nucleoporin 205kD)", "dsRNA": "DRSC19432", "replicate 1, z-score of dpERK with insulin": 0.22}
{"gene": "CG1889 + CG43386", "dsRNA": "DRSC17979", "replicate 1, z-score of dpERK with insulin": -0.2}
{"gene": "CG8042", "dsRNA": "DRSC09676", "replicate 1, z-score of dpERK with insulin": 0.04}
{"gene": "Apc2 (Adenomatous polyposis coli 2)", "dsRNA": "DRSC14115", "replicate 1, z-score of dpERK with insulin": -0.18}
{"gene": "gukh (GUK-holder)", "dsRNA": "DRSC14768", "replicate 1, z-score of dpERK with insulin": 0.14}
{"gene": "gukh (GUK-holder)", "dsRNA": "DRSC15806", "replicate 1, z-score of dpERK with insulin": 0.31}
{"gene": "gukh (GUK-holder)", "dsRNA": "DRSC15944", "replicate 1, z-score of dpERK with insulin": 0.1}
{"gene": "Lcp65Ac", "dsRNA": "DRSC11210", "replicate 1, z-score of dpERK with insulin": -0.36}
{"gene": "CG15525", "dsRNA": "DRSC15062", "replicate 1, z-score of dpERK with insulin": 0.48}
{"gene": "Ntf-2r (Nuclear transport factor-2-related)", "dsRNA": "DRSC02019", "replicate 1, z-score of dpERK with insulin": 0.23}
{"gene": "CG13631", "dsRNA": "DRSC14632", "replicate 1, z-score of dpERK with insulin": 0.12}
{"gene": "Toll-9", "dsRNA": "DRSC11776", "replicate 1, z-score of dpERK with insulin": 0.85}
{"gene": "AttC (Attacin-C)", "dsRNA": "DRSC06886", "replicate 1, z-score of dpERK with insulin": 0.22}
{"gene": "AP-1sigma (Adaptor Protein complex 1, sigma subunit)", "dsRNA": "DRSC15899", "replicate 1, z-score of dpERK with insulin": 0.41}
{"gene": "eIF2gamma + Su(var)3-9", "dsRNA": "DRSC13081", "replicate 1, z-score of dpERK with insulin": 3.49}
{"gene": "eIF2gamma + Su(var)3-9", "dsRNA": "DRSC16873", "replicate 1, z-score of dpERK with insulin": -0.65}
{"gene": "mirr (mirror)", "dsRNA": "DRSC11369", "replicate 1, z-score of dpERK with insulin": -0.7}
{"gene": "Arl6 (ADP ribosylation factor-like 6)", "dsRNA": "DRSC07031", "replicate 1, z-score of dpERK with insulin": 0.68}
{"gene": "CCHa1 (CCHamide-1)", "dsRNA": "DRSC14821", "replicate 1, z-score of dpERK with insulin": -0.53}
{"gene": "CG14111", "dsRNA": "DRSC10114", "replicate 1, z-score of dpERK with insulin": -0.15}
{"gene": "Ctr1A (Copper transporter 1A)", "dsRNA": "DRSC18336", "replicate 1, z-score of dpERK with insulin": -2.51}
{"gene": "Acph-1 (Acid phosphatase 1)", "dsRNA": "DRSC14103", "replicate 1, z-score of dpERK with insulin": -0.24}
{"gene": "NaPi-T (Na[+]-dependent inorganic phosphate cotransporter)", "dsRNA": "DRSC07476", "replicate 1, z-score of dpERK with insulin": 0.95}
{"gene": "mthl1 (methuselah-like 1)", "dsRNA": "DRSC19905", "replicate 1, z-score of dpERK with insulin": -0.11}
{"gene": "CG31820", "dsRNA": "DRSC21318", "replicate 1, z-score of dpERK with insulin": 0.02}
{"gene": "Xe7", "dsRNA": "DRSC12307", "replicate 1, z-score of dpERK with insulin": -0.78}
